Values of other authors in patent US20040132821A1, “Therapeutic combination of carnitine and antioxidant polyphenols” (priority 2002, published 2004).
At least one compound was matched to its structure with a doubt left.

Experiments:
[1] = cited from earlier work
F2-isoprostanes = details: animals exposed to pro-oxidant effects of passive smoking; cited from earlier work
[2] = test system: urinary F2-isoprostanes (8-epi-PGFs); details: normal humans; cited from earlier work
[3] = cited from earlier work; remark: listed apart in the source

| SMILES | scavenging of superoxide anions [1] | F2-isoprostanes (biomarker of oxidative status) (F2-isoprostanes) | urinary F2-isoprostanes (8-epi) [2] | scavenging of peroxynitrite [3] |
| --- | --- | --- | --- | --- |
| O=C(O)CCCCC1CCSS1 (stereo not drawn) [α-lipoic acid, reference compound] | does not |  |  |  |
| OCCc1ccc(O)c(O)c1 [hydroxytyrosol, Hydroxytyrosol] | scavenges superoxide anions | suppressed | dose-dependent decrease | ability to scavenge peroxynitrite |
